The results in this text go back to article PMC6068238.

No constants are given. Whether binding was seen depends on the method and setting. For some assays here: Binding can be weak; no strength is given.

For assay [1], the target named is T1, LasR (yeast two-hybrid) (Pseudomonas aeruginosa (work done on strain PA1201)) (UniProt P25084).
T1 sequence: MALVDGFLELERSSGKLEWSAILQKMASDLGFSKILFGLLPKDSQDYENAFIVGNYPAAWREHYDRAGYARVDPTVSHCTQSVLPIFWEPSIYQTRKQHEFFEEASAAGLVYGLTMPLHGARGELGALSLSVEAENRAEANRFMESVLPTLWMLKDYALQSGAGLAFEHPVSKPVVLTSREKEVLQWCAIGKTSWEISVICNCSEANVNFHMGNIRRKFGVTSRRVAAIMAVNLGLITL
Description: two-hybrid; Matchmaker Gold Yeast System (Clontech), yeast strain AH109; QslA in the prey vector pGADT7, baits in pGBKT7; growth for 3 days at 30°C on SD-Leu-Trp-His and SD-Leu-Trp-His-Ade plates.

Assay [2] concerns the target T2, RsaL (yeast two-hybrid) (Pseudomonas aeruginosa (work done on strain PA1201)) (UniProt Q9X7H4).
T2 sequence: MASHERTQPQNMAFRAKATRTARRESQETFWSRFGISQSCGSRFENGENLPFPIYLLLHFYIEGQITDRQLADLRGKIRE
The description is as above.

Regarding “QslA (yeast two-hybrid prey, pGADT7) (Pseudomonas aeruginosa strain PA1201)”, the figures for the binding entry in assay [1] and in assay [2] were “binds weakly” and “no binding”, respectively.
